Some of the results follow.
Key:
Test in all cases: log2 fold change, soluble protein after heating vs DMSO (PISA); higher = thermal stabilisation; K562 cells, 10 uM, 30 min; active = over 0.2 and 3.5 SD of the protein, either way, in both replicates (recomputed)
[1] = compound: C1=CC=C(C=C1)[C@H](COC2=CC3=C(C=C2)NC(=O)N3)NC(=O)C4=CC=CN(C4=O)CC5=CC(=C(C=C5)F)F
Outline: (§1)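 K562 cells at 2×10^6 cells/mL were exposed to 10 μM compound for 30 min, then aliquots were heated for 3 min across 48°C-58°C, pooled, and extracted in PBS containing 0.5% NP-40 at 4°C. The supernatant after 21,000xg for 90 min was taken as soluble protein and measured by TMTpro 16plex LC-MS/MS with channel sums equalised. Thermal stability is reported relative to control samples, with values from duplicates. Fold changes are given on a log2 scale.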

By UniProt entry, the sequences of proteins in these tests, tags left out. Where a name states a change or a piece, a line headed by the entry shows the natural chain unless it says otherwise.
UniProt Q969G3, whole entry, looked up: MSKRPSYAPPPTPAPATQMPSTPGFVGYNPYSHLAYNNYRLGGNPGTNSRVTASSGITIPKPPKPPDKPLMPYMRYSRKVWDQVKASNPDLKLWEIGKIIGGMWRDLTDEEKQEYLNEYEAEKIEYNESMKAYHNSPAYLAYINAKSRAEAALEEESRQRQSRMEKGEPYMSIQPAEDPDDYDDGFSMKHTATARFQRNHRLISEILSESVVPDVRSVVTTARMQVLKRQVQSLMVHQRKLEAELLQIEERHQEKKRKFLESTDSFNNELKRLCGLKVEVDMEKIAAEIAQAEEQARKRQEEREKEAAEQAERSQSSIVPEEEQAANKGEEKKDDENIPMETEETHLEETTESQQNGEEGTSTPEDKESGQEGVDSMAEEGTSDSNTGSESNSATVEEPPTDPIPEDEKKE
UniProt Q9Y5X1: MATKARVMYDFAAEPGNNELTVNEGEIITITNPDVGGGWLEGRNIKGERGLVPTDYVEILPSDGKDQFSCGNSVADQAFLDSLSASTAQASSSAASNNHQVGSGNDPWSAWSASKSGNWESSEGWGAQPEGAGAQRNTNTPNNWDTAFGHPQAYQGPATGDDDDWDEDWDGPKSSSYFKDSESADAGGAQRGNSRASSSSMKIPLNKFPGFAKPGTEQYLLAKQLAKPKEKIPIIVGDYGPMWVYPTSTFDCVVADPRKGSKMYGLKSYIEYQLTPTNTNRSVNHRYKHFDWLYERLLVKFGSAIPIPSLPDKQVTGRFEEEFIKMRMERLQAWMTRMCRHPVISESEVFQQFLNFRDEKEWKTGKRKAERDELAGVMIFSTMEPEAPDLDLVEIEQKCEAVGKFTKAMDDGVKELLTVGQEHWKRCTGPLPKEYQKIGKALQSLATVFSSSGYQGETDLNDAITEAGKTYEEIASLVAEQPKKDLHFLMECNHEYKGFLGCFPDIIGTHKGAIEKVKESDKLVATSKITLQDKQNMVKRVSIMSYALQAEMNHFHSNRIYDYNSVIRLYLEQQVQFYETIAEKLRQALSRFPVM
UniProt Q9Y5W8: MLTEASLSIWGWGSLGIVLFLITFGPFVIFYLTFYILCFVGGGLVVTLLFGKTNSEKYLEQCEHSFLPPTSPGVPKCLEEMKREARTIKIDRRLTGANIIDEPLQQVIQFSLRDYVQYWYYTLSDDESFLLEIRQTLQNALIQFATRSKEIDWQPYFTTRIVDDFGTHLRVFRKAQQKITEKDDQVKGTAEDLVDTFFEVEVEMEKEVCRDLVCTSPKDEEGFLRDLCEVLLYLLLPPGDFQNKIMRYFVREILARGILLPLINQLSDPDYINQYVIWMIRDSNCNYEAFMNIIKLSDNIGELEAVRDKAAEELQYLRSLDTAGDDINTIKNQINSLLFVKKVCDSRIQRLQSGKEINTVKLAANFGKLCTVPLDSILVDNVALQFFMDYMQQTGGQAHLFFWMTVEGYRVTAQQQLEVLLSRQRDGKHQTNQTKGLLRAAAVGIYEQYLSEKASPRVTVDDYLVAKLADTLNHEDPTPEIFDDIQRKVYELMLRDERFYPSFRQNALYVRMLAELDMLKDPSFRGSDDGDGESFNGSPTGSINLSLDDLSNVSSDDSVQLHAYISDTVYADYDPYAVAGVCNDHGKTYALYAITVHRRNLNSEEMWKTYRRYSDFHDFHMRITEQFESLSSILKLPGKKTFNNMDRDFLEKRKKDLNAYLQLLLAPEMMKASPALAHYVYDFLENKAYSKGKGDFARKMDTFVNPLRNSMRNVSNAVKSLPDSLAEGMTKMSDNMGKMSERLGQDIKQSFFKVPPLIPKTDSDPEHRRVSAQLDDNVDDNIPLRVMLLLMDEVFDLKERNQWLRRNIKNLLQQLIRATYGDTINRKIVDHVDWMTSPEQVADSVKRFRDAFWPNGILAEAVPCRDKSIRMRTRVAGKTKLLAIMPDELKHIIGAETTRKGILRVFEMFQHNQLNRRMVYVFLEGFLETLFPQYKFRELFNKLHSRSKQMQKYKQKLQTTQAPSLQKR
UniProt P00441, whole entry, looked up: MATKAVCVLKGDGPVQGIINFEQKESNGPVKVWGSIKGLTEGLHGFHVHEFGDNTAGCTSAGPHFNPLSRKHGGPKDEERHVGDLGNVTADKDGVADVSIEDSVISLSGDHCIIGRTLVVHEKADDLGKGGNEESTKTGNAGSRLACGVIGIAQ

[2] = compound: CC1=C(SC2=C1C(=N[C@H](C3=NN=C(N32)C)CC(=O)N)C4=CC=C(C=C4)Cl)C
Outline: as §1

[3] = compound: CC1=C2C(=CC=C1)N=C(N(C2=O)C3=CC=CC=C3C)CN4C=NC5=C(N=CN=C54)N
Outline: as §1

[4] = compound: Cc1sc2c(c1C)C(c1ccc(Cl)cc1)=N[C@@H](CC(=O)OC(C)(C)C)c1nnc(C)n1-2
Outline: as §1

[5] = compound: c1ccc([C@@H]2C[C@H]2NC2CCNCC2)cc1
Outline: as §1

Measured: log2 fold change

SMARCE1 (UniProt Q969G3)
inactive: [1] -0.156 | [2] -0.002 | [3] 0.338 | [4] 0.111 | [5] -0.051

SNX9 (UniProt Q9Y5X1)
inactive: [1] -0.051 | [2] 0.019 | [3] 0.048 | [4] 0.002 | [5] 0.017

SNX13 (UniProt Q9Y5W8)
inactive: [1] -0.081

SMIM26, A0A096LP01
inactive: [1] -0.029 | [2] -0.014 | [3] 0.017 | [4] 0.154 | [5] 0.024

SOD1 (UniProt P00441)
inactive: [1] 0.028 | [2] 0.111 | [3] 0.041 | [4] -0.005 | [5] 0.039
